Results on 108 sequences are retold here after PubChem BioAssay AID1347426 (Functional Genomics Laboratory (NCATS/FGL), 2020).

The whole screen tested about 31,000 sequences, of which about 1,400 (4.5%) were called active.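 The calls were made as follows: active = median seed-adjusted z-score above 1 or below -1; inactive = the rest.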 The list shows a part of the results.

The nature of this assay: Novel Modifiers of Survival Motor Neuron (SMN) Protein: Gene Identification via Genome-wide siRNA Screen.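 Also: luminescence tracks full-length SMN protein made from the SMN2 reporter.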 The settings on record: HEK293T SMN2-luciferase reporter, siRNA knockdown, 72 h; actives lie on both sides. In short, it runs like this:
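HEK293T cells stably expressing an SMN2 splicing/cDNA-luciferase reporter were reverse-transfected with a druggable-genome siRNA library and read by luminescence at 72 hours; hits defined by MAD score above 1.0 or below -1.0.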
(In general: Reporter assays use an easily measured gene product as a stand-in for the process of interest.)
As for GGUACUUCAUCGACCGAGATT against KCTD7, the median seed-adjusted z-score was inactive: 0.484.
The figure for GCCUUUUCAGGAGCGCAGATT against ACTN4 is inactive: 0.
The figure for GUAAGGACAUUCUACAGCATT against DHX32 is inactive: -0.12; for GGACCGAGGUCUUUCCAUUTT against LSM1 it is inactive: 0.
The figure for CGACAUACCCAGACUGAUATT against TNIK is inactive: 0.154; for CCAAUGCCCAUGCAAGUGATT against ITIH5L it is inactive: -0.407; for GGAACUGUUUUUACAAGCATT against MKRN1 it is inactive: -0.496.
Consider GACCUAUCCUGGUUUUACUTT against TBXAS1, for which the median seed-adjusted z-score is inactive: 0.
The figure for CGGGUUCCGUAAAUGAAAATT against SMOC2 is inactive: -0.72; for CCAAGCCUCUUUCCUACAATT against GPR52 it is active: -1.17; for CGCAGAAGAUGUACCAGUUTT against CDH22 it is inactive: -0.57.
Regarding GCACAAGAGUGAAGCUCCUTT against BTN3A1, the median seed-adjusted z-score was inactive: -0.198.
The value for CACCUGCAGUCAAUAAAAUTT against NPVF was inactive: 0.588; that for GCAACUCCAUGAGAAGAAATT against KCNJ8 was inactive: 0.329.
The value for CACUGACCCUCAUAAUCCATT against LARS2 was inactive: 0.25; that for GGAAGACAGUUUUUAUUUUTT against ST3GAL4 was inactive: 0.245; that for CCAUGGACGUCAUGCUGUGTT against DRD4 was inactive: -0.183.
The figure for AGGAGCCUAUUAUCCCUAUTT against IRX6 is inactive: -0.0329; for GCACCAAGGUGAAGACCUUTT against NFKB2 it is inactive: -0.132.
For the sequence AAAUUUCCACGGUGAAAUATT against NPPB, the median seed-adjusted z-score is inactive: -0.973.
Take GCGAAGUGUUCAGACCAAATT against HEATR1: the median seed-adjusted z-score was inactive: -0.115.
Consider GGUUAACGAUUAUUCGGCATT against GRID2, for which the median seed-adjusted z-score was inactive: 0.676.
The figure for UGUUCAGAAUACAAUAAUATT against CARD16 is inactive: 0.57; for CUACAAAGCCGUUUCUUAUTT against CLDN18 it is inactive: 0.000299; for CCCAAGAUUAUGUUACGUATT against SMYD4 it is inactive: 0.272.
CCAACAACUAGAUAGAUUATT against NRL: the median seed-adjusted z-score is inactive: -0.352.
The figure for AGACAGUCCUAGGAGCUGATT against IL11RA is inactive: -0.708; for GCCUCUGCCUGUAUCCUAATT against DQX1 it is inactive: -0.297.
As to GAUUGUUGAUGGAAUUGAATT against KCNH8, the median seed-adjusted z-score was inactive: 0.
The value for GAUUGAUGGGUGUAAGAAATT against SMS was inactive: 0.186; that for GCCAGAAAAUUGGCGACGATT against GCGR was inactive: -0.224.
The figure for GGUUGUCUUCCGUCAGAUATT against MELK is inactive: -0.195; for CCUCCACUACAAACCCACATT against GPR56 it is inactive: -0.109.
The figure for GUUCUGGACCGGUUACUUUTT against MAN2B1 is inactive: -0.246; for UCACUAUCAGUACCCAUUATT against CHRNB1 it is inactive: 0.16; for GAAUGAUGAUUCAUGAACATT against STX7 it is inactive: 0.251.
Regarding CCCUGUCACUUGUCAGACATT against DHX9, the median seed-adjusted z-score was inactive: -0.687.
Consider GCAGCAUAAUGAAACGUGATT against ARPM1, for which the median seed-adjusted z-score was inactive: -0.0251.
The figure for GCUAUGAUCCAGUUACUAATT against IPP is inactive: 0.298; for UGUCCACUGUGCACGGGAATT against CLDN15 it is inactive: 0.973.
The value for CCAUACGAAAUGUAACAGATT against SRBD1 was inactive: 0.169.
The figure for GACAUGAAGUGGUUUUGGATT against TRIM55 is inactive: -0.483; for AGAGGUACGUCUACAGUAUTT against F2R it is inactive: -0.392; for GCUUUCGUCAAGUCAAAGATT against TIRAP it is inactive: -0.431.
Take GUAUGAACAUGCUAAUGAUTT against PDXDC1: the median seed-adjusted z-score was inactive: 0.665.
For the sequence CAAUAUUUAAGGGAAAGUATT against IRF9, the median seed-adjusted z-score was inactive: 0.114.
The figure for GCAGAUACGAGUGGACAAATT against ZNF532 is inactive: -0.0289.
GGGAGGGCCUUGAUUUCCATT against AQP2: the median seed-adjusted z-score was inactive: -0.433.
The figure for CCAGCUGCCAAUUAUCUCATT against TRIM72 is inactive: -0.0122; for GAGUUAUGAGUGACUAUUUTT against COG5 it is inactive: -0.0609.
The value for GCUCGUCCCUGAUGGAUAATT against EDN1 was inactive: 0.0717; that for GGUAUGCUAUGAGACUAAATT against AFF3 was inactive: -0.00277; that for GUACAACAGUUCAUCCUUATT against COG4 was inactive: -0.508.
Consider GCUUCGUGAGCUUUGAUAATT against BRUNOL5, for which the median seed-adjusted z-score is inactive: 0.333.
Consider GCAUCUGAAGACUCAGGCATT against TAZ, for which the median seed-adjusted z-score was inactive: 0.0549.
The figure for GAUUGUCAACUUGCCGGUATT against NFE2 is inactive: -0.0226; for GCAUAGACCUCGUGAAGGATT against B4GALNT3 it is inactive: -0.021.
The value for GGAGAUGUAUUGGUGAGAATT against CYP3A5 was inactive: 0.0516; that for GUGUGGAUCUUACGGAAAATT against DDEF2 was inactive: 0.438.
The figure for CCCUGACAUUGAUGCGAAUTT against ZNF687 is inactive: 0; for UAGUGAAUGUUGCCCAAAATT against CLDN8 it is inactive: 0.542.
As for CCAGGCCCAUUCUACAAUATT against PEAR1, the median seed-adjusted z-score is inactive: 0.071.
The figure for GACCGAAAAAUACCGCUGATT against HBM is inactive: 0; for GAUUCCAAGUUCAGGAGAATT against ABCC5 it is inactive: 0.00533; for GCAUGAACCUCACUGUGCATT against ZNF71 it is inactive: -0.0193.
The figure for CCAUCAUCGACACACCCAATT against PRSS27 is active: 1.03.
The value for GGAGAAAAGUAAACGGGCATT against SULT1C4 was inactive: 0.00352.
For GCCGGCAGUUUCUAAAGUATT against PTDSS2, the median seed-adjusted z-score is inactive: 0.0941.
In the case of GAAAUUGAUAAGCAAAGUATT against TRO, the median seed-adjusted z-score is active: 2.04.
The figure for AACUCAGCUGGGUACCUCATT against PLA2G4D is inactive: -0.233; for CGCCUGCAAUAUGCAAUCATT against CRYL1 it is inactive: 0.0852; for CCACCGAUGAGAUUACCUUTT against STS it is inactive: -0.392.
For the sequence GGCCGAGGAGUAUGACUAUTT against EFS, the median seed-adjusted z-score was inactive: -0.299.
Take GGCUGAUAUGGGUCAUGAATT against TNKS: the median seed-adjusted z-score is inactive: 0.193.
The value for CCCAUGACAUGCUUCGUAATT against UBE3B was inactive: 0.0972; that for AGAUAAUGAUUUUUCCAGATT against LPCAT1 was inactive: -0.995; that for ACAUCUCCGAAAUCGCCUATT against SLC2A8 was inactive: -0.105.
The figure for CGAUCCGGGUUUCGAAAAATT against TRIO is inactive: 0.42; for GGAAUUUCCCAGCUACCCATT against CCBE1 it is inactive: 0.964.
The value for CCGGAGAUGGAUGAAUCUATT against ICAM5 was active: -1; that for GAGUUGAUAGGAUAGAUGATT against SEC23IP was inactive: -0.0226; that for GGAUUACAGCAGGUGCAGATT against MED8 was active: -1.61.
Consider CAGUUCCAGAUGAACCAUATT against DHDDS, for which the median seed-adjusted z-score was inactive: 0.0122.
The value for CAGUUAAGAUGUCACCGUATT against ZNF417 was inactive: 0.0205; that for GACCAGAUCUUUAAUCUCATT against RGS10 was inactive: 0.304; that for GCCCAGUCUUGAUUACUGATT against ARPM1 was inactive: -0.0251.
The figure for GCAUCGAAAUGGUGUAAUUTT against ASCC1 is inactive: -0.00853.
As for CCUUUAAUAUCGACCGCAATT against KCNC4, the median seed-adjusted z-score is inactive: -0.433.
For the sequence GGGUGAGAAUGUUACAAUUTT against FUS, the median seed-adjusted z-score was inactive: 0.92.
As to GAGCUUAAGUGAAGUCCUATT against ZSCAN29, the median seed-adjusted z-score is inactive: 0.193.
The figure for GUGUGGAUCUGGUAAUACATT against DNM3 is inactive: 0.
The figure for CGUCGGAUGUGCUACUUGATT against COPG is inactive: 0.175; for GGAUCCAACUCGACAACAATT against SSBP2 it is inactive: 0.
For AGCUUCCAGUCACAGCAUATT against PAX5, the median seed-adjusted z-score is inactive: 0.285.
The figure for GGCUGAGAUGCGUCGUAAATT against ARCN1 is active: -1.25; for CCCUGUCUAUAAUUUCUUUTT against DGCR8 it is inactive: -0.266.
The value for CUUCCUGUAUUGCUAUUAATT against ACTR3 was inactive: -0.7; that for GGGCAAUGCCUAGAAGAAUTT against PDE6D was inactive: 0; that for GAACUUCAAUAGAUCAGUUTT against GSPT1 was inactive: -0.761.
The figure for AACCAUUUCUCAAUCCUUATT against ZNF43 is inactive: 0.29.
With GGUGGGUCUUUUUCGCAAATT against STARD13, the median seed-adjusted z-score is inactive: -0.0337.
The figure for GAAUAAGUGAAACACGGAATT against MAP3K7IP2 is inactive: 0.0195; for CAUGUCUUCUGAAUAGCAATT against MOBKL3 it is inactive: 0.575; for GUUUGCAUGUGACAAUGGATT against PPTC7 it is inactive: 0.49.
The value for GUUCAGCACUCAUUAGACATT against ZNF17 was inactive: 0.579; that for UCGUGGUUGUUAAUUUGAATT against CSNK1E was inactive: -0.796; that for AAAUCUUGGUGCUUCCAUATT against SERPINB6 was inactive: 0.0155.
The figure for GAAUUAACUUCAUGGUGAATT against PPM1K is inactive: 0.154.
